Where a SMILES comes first, the peptide text is derived from it. [ ]: non-standard residue; d: D form. d(pGlu) = O=C1CC[C@H](C(=O)O)N1; pGlu = O=C1CC[C@@H](C(=O)O)N1

Tested on in one data set: not listed separately
The experiment in a line: general procedure: Boc solid-phase peptide synthesis; 4-methylbenzhydrylamine resin (MBHAR) (0.8 mmol/g). To be noted: conjugation step, 214 nm.
Regarding Z-C-R-R-L-C-Y-B-Q-R-C-V-T-Y-C-R-G-R-NH2, the “final HPLC purity” value was 98%.

With Z-C-R-R-L-C-Y-X-Q-R-C-V-T-Y-C-R-G-R-NH2, the “final HPLC purity” value stood at 99%. Still for that read-out and setting: to Z-S-R-R-L-S-Y-B-Q-R-S-V-T-Y-S-R-G-R-NH2 belongs 97%; to Z-S-R-R-L-S-Y-X-Q-R-S-V-T-Y-S-R-G-R-NH2, 98%. Still for that read-out and setting: as for Z-T-R-R-L-T-Y-B-Q-R-T-V-T-Y-T-R-G-R-NH2, the figure is 98%; as for Z-T-R-R-L-T-Y-B-p-R-T-V-T-Y-T-R-G-R-NH2, 97%.

The data set is the same for the next values; noted with them: whole synthesis, 214 nm.
Consider Z-C-R-R-L-C-Y-K-Q-R-C-V-T-Y-C-R-G-R-NH2, for which the “final HPLC purity” value is listed as 98%.

Regarding Z-S-R-R-L-S-Y-K-Q-R-S-V-T-Y-S-R-G-R-NH2, the “final HPLC purity” value is recorded as 98%. For the molecule Z-T-R-R-L-T-Y-K-Q-R-T-V-T-Y-T-R-G-R-NH2, the “final HPLC purity” value is 99%. On the same count and under the same terms, as for Z-T-R-R-L-T-Y-K-p-R-T-V-T-Y-T-R-G-R-NH2, the figure is 98%.

For a further data set, the system named is B16 cells. The experiment in a line: Peptide bound to the external cell membrane, biotinylated peptides, flow cytometry. The format is cell-based, mouse. Conditions: biotinylated peptides used, 2 µM, streptavidin-Alexa 488 (FL1), maximum over time course, mean ± SEM, three independent experiments. (In flow cytometry, cells or beads pass a laser one at a time.)
Turning to `CC(C)C[C@@H](NC(=O)[C@@H](CCCNC(=N)N)NC(=O)[C@@H](CCCNC(=N)N)NC(=O)[C@H](NC(=O)[C@H]1CCC(=O)N1)[C@H](C)O)C(=O)N[C@@H](C(=O)N[C@H](Cc1ccc(O)cc1)C(=O)N[C@H](CCCCN)C(=O)N1CCC[C@H]1C(=O)N[C@H](CCCNC(=N)N)C(=O)N[C@@H](C(=O)N[C@@H](C(=O)N[C@@H](C(=O)N[C@H](Cc1ccc(O)cc1)C(=O)N[C@@H](C(=O)N[C@H](CCCNC(=N)N)C(=O)NCC(=O)N[C@H](CCCNC(=N)N)C(N)=O)[C@H](C)O)[C@H](C)O)C(C)C)[C@H](C)O)[C@H](C)O` [[D-Thr^2,6,11,15, Pro^9]-D-Gm] ([d(pGlu)][dT][dR][dR][dL][dT][dY][dK]P[dR][dT][dV][dT][dY][dT][dR]G[dR]-NH2), the “Max. External Fluorescence” value was 71±4 AU.

As to `CC(C)C[C@@H](NC(=O)[C@@H](CCCNC(=N)N)NC(=O)[C@@H](CCCNC(=N)N)NC(=O)[C@H](NC(=O)[C@H]1CCC(=O)N1)[C@H](C)O)C(=O)N[C@@H](C(=O)N[C@H](Cc1ccc(O)cc1)C(=O)N[C@H](CCCCN)C(=O)N[C@H](CCC(N)=O)C(=O)N[C@H](CCCNC(=N)N)C(=O)N[C@@H](C(=O)N[C@@H](C(=O)N[C@@H](C(=O)N[C@H](Cc1ccc(O)cc1)C(=O)N[C@@H](C(=O)N[C@H](CCCNC(=N)N)C(=O)NCC(=O)N[C@H](CCCNC(=N)N)C(N)=O)[C@H](C)O)[C@H](C)O)C(C)C)[C@H](C)O)[C@H](C)O` [[D-Thr^2,6,11,15]-D-Gm] ([d(pGlu)][dT][dR][dR][dL][dT][dY][dK][dQ][dR][dT][dV][dT][dY][dT][dR]G[dR]-NH2), the “Max. External Fluorescence” value is 43±6 AU. Consider `CC(C)C[C@H](NC(=O)[C@H](CCCNC(=N)N)NC(=O)[C@H](CCCNC(=N)N)NC(=O)[C@H](CO)NC(=O)[C@@H]1CCC(=O)N1)C(=O)N[C@@H](CO)C(=O)N[C@@H](Cc1ccc(O)cc1)C(=O)N[C@@H](CCCCN)C(=O)N[C@@H](CCC(N)=O)C(=O)N[C@@H](CCCNC(=N)N)C(=O)N[C@@H](CO)C(=O)N[C@H](C(=O)N[C@H](C(=O)N[C@@H](Cc1ccc(O)cc1)C(=O)N[C@@H](CO)C(=O)N[C@@H](CCCNC(=N)N)C(=O)NCC(=O)N[C@@H](CCCNC(=N)N)C(N)=O)[C@@H](C)O)C(C)C` [[Ser^2,6,11,15]-Gm] ([pGlu]SRRLSYKQRSVTYSRGR-NH2), for which the “Max. External Fluorescence” value amounted to 37±3 AU. Same read-out and setting: as for `CC(C)C[C@H](NC(=O)[C@H](CCCNC(=N)N)NC(=O)[C@H](CCCNC(=N)N)NC(=O)[C@@H](NC(=O)[C@@H]1CCC(=O)N1)[C@@H](C)O)C(=O)N[C@H](C(=O)N[C@@H](Cc1ccc(O)cc1)C(=O)N[C@@H](CCCCN)C(=O)N1CCC[C@@H]1C(=O)N[C@@H](CCCNC(=N)N)C(=O)N[C@H](C(=O)N[C@H](C(=O)N[C@H](C(=O)N[C@@H](Cc1ccc(O)cc1)C(=O)N[C@H](C(=O)N[C@@H](CCCNC(=N)N)C(=O)NCC(=O)N[C@@H](CCCNC(=N)N)C(N)=O)[C@@H](C)O)[C@@H](C)O)C(C)C)[C@@H](C)O)[C@@H](C)O` [[Thr^2,6,11,15, D-Pro^9]-Gm] ([pGlu]TRRLTYK[dP]RTVTYTRGR-NH2), the figure is 38±6 AU; as for `CC(C)C[C@H](NC(=O)[C@H](CCCNC(=N)N)NC(=O)[C@H](CCCNC(=N)N)NC(=O)[C@@H](NC(=O)[C@@H]1CCC(=O)N1)[C@@H](C)O)C(=O)N[C@H](C(=O)N[C@@H](Cc1ccc(O)cc1)C(=O)N[C@@H](CCCCN)C(=O)N[C@@H](CCC(N)=O)C(=O)N[C@@H](CCCNC(=N)N)C(=O)N[C@H](C(=O)N[C@H](C(=O)N[C@H](C(=O)N[C@@H](Cc1ccc(O)cc1)C(=O)N[C@H](C(=O)N[C@@H](CCCNC(=N)N)C(=O)NCC(=O)N[C@@H](CCCNC(=N)N)C(N)=O)[C@@H](C)O)[C@@H](C)O)C(C)C)[C@@H](C)O)[C@@H](C)O` [[Thr^2,6,11,15]-Gm] ([pGlu]TRRLTYKQRTVTYTRGR-NH2), 17.5± 7 AU.

Source of the values: PMC3843672 (PLoS ONE, 2013).
